pIC50: −log10 of the molar value. The match of structure and compound is tentative.
Target: RORc ligand binding domain (Homo sapiens, UniProt P51449)
Test: In vitro RORc ligand binding assay (25-[3H]hydroxycholesterol displacement, filter binding)
Conditions: read-out: RORc IC50

By UniProt entry, the sequences of proteins in these tests, tags left out. Residues count along the entry.
UniProt P51449, 269-508 limits assumed: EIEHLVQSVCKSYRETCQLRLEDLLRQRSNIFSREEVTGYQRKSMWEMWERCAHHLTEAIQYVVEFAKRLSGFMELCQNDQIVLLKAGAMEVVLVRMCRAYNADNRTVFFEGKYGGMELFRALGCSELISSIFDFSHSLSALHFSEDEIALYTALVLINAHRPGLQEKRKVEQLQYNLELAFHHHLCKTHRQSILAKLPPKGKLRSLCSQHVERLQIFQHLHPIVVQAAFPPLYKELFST

Cc1nc(N2CCO[C@@H]([C@@]34CC[C@@H](c5cc(-c6c(F)cccc6F)nnc53)C4(C)C)C2)n(Cc2ccccc2)n1
pIC50: 7.43

From patent publication US9994551B2, “Pyridazine derivatives as RORc modulators” (Genentech, Inc., priority 2015, dated 2018)
